Results taken from patent US20210386743A1, “USE OF PDE9 INHIBITORS FOR TREATMENT” (The Johns Hopkins University, priority 2018, published 2021).

Tests used:
[1] = system: OVX+HFD+TAC female mice (C57BL/6N); test: Whole body metabolism by indirect calorimetry (CLAMS metabolic cage) in OVX+HFD+TAC female mice; assay type: in vivo, mouse; conditions: OVX+HFD+TAC females, vs vehicle
Experimental: (§1) All animals were fed a high fat diet (HFD) consisting of 60% kcal derived from fat was fed to both male and female C57BL6N mice for 3 months. Mice were divided into two groups: 1) Controls with intact ovaries; 2) Ovariectomized (Ovx) mice. Mice were assigned to receive trans-aortic constriction (TAC) or sham surgery after 3 months of HFD, and further randomized to placebo vehicle and PDE9-I (PDE9 inhibitor oral gavage 20 mg/kg twice daily) (FIG. 1). Comparison of Group 1 and 2 tests the efficacy of PDE9-I to ameliorate and/or reverse HFD and pressure-overload pathophysiology independent of sex hormone status.
(§2) Whole body metabolism: Indirect calorimetry was used to assess metabolic parameters in live animals using the OxyMAX Comprehensive Lab Animal Monitoring System (Columbus Instruments, Columbus Ohio). Basic metabolic rate (VO2 consumption), VCO2 release and energy expenditure (EE) were measured by indirect calorimetry in high-fat-fed OVX mice groups treated with (Drug) and without PDE9 inhibitor (Control). Respiratory exchange ratio (RER) was calculated from VCO2 release-to-VO2 consumption ratio (VCO2 release/VO2 consumption). CLAMS cabinet was used to measure oxygen consumption rate at 22° C. (VO2), CO2 emission, respiratory exchange ratio, heat production, food consumption (g consumed per day), and total and ambulatory activity per day.
Female mice (C57BL/6N) were placed on a 60% fat diet starting at age 5-weeks. Two weeks later, there were randomized to receive bilateral oophorectomy or sham surgery. Cardiac imaging for ventricular function and morphometry was determined 2 months later. Between 8-11 weeks after ovariectomy, the mice underwent a second surgical procedure introducing a mild aortic constriction (TAC) in the transverse aorta to increase pressure load on the heart. The purpose of the TAC procedure was to stimulate the heart to synthesize natriuretic peptide, which is important for the generation of cyclic GMP which PDE9 regulates. Serial echocardiograms were obtained, and starting 1 week after TAC, mice were further randomized to receive vehicle control or a PDE9 inhibitor (PF-7943). Intact mouse metabolic studies, fat/lean mass determinations, and heart function were assessed. At terminal study, tissues were harvested for molecular signaling.
RER is calculated from VCO2/VO2 ratio. […] Even if fat mass is assumed to contribute only 15% of total metabolic activity relative to lean mass, these differences remain significant (data not shown). […] P values are for unpaired t-tests between groups.

[2] = system: C57BL6/N female mice with intact ovaries, HFD+TAC; test: Whole body metabolism (indirect calorimetry) in HFD+TAC female mice with intact ovaries; assay type: in vivo, mouse; conditions: females with intact ovaries, HFD + pressure overload
Experimental: as §1, §2
In a second experiment, we examined the impact of PDE9 inhibition on female mice (C57BL6/N) subjected to HFD+TAC, but without ovariectomy and thus had normal estrogen levels.

C[C@@H]1CN(Cc2ncccn2)C[C@H]1c1nc2c(cnn2C2CCOCC2)c(=O)[nH]1 [PF 04447943]
ambulatory activity ([1]; listed as PDE9-I): no significant differences
food intake ([1]; listed as PDE9-I): no significant differences
total activity ([1]; listed as PDE9-I): no significant differences
ambulatory activity ([1]; listed as PDE9 inhibitor): without a concomitant change
food intake ([1]; listed as PDE9 inhibitor): without a concomitant change
total activity ([1]; listed as PDE9 inhibitor): without a concomitant change
ambulatory activity [2]: do not show any changes
food intake ([2]; listed as PDE9-I): no difference
total activity ([2]; listed as PDE9-I): no difference
food intake ([2]; listed as PDE9i): do not show any changes
total activity ([2]; listed as PDE9i): do not show any changes
